Measured values as given in the supplement of paper PMC6411743.
± gives the standard deviation of the averaged measurements. This is a selection; strong and weak results do not stand in their true shares.

Sequences of proteins named here, by UniProt entry; tags and fusion partners are left off. A change or cut given only in a name is not applied to a line headed by its entry.
UniProt Q9H967: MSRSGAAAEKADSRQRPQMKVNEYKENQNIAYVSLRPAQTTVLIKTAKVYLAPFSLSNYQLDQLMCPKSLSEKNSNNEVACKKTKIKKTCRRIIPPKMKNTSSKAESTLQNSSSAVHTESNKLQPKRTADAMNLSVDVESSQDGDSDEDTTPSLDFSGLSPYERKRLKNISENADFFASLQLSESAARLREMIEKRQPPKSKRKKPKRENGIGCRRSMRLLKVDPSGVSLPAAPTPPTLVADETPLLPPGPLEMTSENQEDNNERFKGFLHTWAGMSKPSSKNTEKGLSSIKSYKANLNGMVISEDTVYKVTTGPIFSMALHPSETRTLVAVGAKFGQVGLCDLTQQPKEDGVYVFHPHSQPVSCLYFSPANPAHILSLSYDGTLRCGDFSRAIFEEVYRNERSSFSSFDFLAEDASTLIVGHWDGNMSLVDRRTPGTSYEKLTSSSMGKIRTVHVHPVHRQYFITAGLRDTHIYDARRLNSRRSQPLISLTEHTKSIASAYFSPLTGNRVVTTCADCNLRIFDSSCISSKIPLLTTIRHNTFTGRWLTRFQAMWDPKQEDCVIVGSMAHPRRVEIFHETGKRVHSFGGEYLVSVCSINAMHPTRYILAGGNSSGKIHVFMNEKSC
UniProt Q9GZR2: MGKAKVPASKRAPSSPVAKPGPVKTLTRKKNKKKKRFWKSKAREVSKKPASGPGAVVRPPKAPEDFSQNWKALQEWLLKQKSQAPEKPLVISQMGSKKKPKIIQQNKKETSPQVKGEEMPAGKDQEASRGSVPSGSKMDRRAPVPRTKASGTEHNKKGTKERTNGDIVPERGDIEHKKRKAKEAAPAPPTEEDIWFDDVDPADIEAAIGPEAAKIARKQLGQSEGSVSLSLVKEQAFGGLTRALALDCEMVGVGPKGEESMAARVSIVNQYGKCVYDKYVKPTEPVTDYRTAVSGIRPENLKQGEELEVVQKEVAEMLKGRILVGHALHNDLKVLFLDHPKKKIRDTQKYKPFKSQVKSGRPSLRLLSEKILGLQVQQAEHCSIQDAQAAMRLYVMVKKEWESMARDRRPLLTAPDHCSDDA
UniProt Q9H3R5: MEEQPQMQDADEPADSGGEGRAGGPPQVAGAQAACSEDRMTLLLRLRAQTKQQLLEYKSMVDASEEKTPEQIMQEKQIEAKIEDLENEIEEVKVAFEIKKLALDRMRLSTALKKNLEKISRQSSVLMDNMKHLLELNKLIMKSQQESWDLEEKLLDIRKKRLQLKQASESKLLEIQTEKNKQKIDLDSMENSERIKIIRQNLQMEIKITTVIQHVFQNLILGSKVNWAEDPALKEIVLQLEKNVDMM
UniProt Q9H4I2: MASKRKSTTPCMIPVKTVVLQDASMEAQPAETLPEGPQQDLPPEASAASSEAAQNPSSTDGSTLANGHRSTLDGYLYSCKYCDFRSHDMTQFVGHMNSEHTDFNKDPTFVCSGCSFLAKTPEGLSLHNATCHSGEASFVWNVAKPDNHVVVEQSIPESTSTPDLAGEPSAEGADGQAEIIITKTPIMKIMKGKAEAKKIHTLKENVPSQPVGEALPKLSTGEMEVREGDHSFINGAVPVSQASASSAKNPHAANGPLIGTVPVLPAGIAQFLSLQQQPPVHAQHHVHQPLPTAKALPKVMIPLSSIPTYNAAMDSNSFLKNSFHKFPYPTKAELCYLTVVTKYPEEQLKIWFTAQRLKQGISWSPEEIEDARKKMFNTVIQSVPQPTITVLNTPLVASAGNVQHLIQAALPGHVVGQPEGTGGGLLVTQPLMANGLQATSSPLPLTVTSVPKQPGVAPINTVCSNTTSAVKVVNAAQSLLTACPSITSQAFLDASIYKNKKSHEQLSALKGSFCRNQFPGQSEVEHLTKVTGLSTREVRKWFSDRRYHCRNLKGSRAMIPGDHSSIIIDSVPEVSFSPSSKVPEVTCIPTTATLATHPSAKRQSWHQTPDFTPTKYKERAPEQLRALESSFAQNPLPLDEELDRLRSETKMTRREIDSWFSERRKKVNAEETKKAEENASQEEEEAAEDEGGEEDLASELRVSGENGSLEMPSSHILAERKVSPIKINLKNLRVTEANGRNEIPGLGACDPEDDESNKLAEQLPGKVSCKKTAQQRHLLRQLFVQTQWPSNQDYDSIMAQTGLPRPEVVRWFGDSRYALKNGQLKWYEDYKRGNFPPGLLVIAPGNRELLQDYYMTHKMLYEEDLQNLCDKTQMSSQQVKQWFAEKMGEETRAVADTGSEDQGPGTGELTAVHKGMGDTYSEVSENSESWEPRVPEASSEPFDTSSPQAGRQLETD
UniProt Q9H334: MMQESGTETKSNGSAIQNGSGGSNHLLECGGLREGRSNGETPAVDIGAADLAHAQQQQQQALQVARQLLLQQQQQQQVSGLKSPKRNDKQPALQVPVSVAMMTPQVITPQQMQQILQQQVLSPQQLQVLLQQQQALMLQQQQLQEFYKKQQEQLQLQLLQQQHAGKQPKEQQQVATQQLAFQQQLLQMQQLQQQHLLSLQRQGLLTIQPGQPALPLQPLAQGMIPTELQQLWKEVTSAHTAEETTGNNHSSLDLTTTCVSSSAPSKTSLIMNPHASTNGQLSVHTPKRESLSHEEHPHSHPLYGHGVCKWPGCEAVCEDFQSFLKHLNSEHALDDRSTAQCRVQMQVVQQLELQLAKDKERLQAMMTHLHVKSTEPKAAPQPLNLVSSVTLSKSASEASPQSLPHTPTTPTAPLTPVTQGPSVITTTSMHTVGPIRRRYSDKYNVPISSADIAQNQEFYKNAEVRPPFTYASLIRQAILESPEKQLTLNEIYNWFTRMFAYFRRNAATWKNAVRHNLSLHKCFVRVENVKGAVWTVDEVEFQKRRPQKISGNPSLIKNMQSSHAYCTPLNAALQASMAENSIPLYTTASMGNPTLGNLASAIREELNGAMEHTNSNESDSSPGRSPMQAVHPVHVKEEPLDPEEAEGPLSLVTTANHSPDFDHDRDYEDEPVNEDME
UniProt Q9H2K0, whole entry, looked up: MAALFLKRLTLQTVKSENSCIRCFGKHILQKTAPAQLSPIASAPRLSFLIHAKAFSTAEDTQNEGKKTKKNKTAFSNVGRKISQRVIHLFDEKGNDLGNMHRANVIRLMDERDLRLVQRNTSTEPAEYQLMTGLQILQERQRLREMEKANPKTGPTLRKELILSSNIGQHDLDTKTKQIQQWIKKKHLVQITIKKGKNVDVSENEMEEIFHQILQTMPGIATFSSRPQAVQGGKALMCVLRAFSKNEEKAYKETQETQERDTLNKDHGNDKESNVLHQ
UniProt Q9H040: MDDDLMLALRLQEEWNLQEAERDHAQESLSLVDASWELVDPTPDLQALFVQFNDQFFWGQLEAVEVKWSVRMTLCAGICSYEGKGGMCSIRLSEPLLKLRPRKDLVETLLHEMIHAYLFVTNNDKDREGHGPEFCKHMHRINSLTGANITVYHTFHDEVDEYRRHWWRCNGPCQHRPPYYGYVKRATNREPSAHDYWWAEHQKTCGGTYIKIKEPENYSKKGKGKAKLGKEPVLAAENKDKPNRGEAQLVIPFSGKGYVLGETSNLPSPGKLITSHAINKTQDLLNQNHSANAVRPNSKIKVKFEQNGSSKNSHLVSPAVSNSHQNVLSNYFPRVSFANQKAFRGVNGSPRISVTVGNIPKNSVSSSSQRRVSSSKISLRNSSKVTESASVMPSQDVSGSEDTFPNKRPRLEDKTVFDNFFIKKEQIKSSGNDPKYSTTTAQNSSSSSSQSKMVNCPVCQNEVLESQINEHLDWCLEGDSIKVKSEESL
UniProt Q9H0R6: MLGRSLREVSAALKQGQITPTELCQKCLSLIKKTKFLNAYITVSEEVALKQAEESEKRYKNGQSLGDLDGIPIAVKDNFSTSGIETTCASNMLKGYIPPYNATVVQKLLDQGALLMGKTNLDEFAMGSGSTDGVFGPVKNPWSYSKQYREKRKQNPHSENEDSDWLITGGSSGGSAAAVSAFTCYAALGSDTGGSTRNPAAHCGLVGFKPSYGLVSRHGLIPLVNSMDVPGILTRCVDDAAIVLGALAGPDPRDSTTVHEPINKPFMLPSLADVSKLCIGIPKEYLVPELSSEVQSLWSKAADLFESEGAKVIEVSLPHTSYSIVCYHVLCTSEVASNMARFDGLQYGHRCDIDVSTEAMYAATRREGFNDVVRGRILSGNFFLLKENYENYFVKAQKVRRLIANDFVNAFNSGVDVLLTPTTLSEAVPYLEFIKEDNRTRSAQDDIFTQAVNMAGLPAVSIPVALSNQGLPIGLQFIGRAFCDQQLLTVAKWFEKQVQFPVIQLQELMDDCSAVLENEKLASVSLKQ
UniProt Q9H0H5: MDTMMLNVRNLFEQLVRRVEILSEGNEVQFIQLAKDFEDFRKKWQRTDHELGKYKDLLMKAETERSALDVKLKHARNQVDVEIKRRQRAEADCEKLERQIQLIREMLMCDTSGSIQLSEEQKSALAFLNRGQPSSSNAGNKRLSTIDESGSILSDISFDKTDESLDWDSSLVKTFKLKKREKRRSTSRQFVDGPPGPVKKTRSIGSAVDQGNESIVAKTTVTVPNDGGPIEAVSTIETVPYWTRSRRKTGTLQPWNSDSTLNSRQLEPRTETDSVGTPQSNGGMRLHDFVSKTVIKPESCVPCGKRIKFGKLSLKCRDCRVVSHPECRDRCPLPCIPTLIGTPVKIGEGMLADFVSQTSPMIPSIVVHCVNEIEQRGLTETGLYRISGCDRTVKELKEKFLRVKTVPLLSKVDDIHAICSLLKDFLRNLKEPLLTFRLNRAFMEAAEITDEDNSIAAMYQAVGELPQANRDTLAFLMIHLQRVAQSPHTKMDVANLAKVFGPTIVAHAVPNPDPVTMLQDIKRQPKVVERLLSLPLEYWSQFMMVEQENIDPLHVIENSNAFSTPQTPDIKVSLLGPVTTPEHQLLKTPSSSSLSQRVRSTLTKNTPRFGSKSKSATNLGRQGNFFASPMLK
UniProt Q9HC16: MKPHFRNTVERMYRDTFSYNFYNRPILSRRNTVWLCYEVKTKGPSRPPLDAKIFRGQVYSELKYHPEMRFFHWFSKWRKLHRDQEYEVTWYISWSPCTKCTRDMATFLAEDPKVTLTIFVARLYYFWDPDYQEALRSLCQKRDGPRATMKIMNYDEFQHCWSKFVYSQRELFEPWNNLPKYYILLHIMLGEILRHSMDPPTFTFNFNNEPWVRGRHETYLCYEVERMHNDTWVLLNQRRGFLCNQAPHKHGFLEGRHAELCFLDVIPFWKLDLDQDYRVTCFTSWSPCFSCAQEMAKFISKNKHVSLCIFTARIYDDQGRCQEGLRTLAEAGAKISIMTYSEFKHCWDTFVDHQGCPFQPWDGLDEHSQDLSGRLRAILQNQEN
UniProt Q9H7P6: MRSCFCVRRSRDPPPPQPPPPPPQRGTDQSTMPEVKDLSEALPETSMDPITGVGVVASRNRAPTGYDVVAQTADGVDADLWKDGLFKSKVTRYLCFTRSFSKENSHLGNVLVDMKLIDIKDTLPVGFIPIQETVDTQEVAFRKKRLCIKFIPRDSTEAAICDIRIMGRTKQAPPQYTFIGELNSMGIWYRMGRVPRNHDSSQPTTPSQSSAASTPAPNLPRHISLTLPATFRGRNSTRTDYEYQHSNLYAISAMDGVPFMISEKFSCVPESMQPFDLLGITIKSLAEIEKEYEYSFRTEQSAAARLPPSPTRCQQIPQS
UniProt Q9HC52: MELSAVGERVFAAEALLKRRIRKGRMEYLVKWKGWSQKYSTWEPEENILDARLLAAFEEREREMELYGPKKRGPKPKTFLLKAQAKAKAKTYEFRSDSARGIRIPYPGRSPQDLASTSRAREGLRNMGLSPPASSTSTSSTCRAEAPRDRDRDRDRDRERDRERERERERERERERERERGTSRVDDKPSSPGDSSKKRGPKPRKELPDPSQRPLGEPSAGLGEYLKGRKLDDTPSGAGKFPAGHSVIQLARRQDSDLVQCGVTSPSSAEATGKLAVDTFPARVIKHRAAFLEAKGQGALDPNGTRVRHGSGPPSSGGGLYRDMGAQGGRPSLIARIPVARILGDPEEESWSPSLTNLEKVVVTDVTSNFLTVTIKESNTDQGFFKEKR
UniProt Q9H1Z4: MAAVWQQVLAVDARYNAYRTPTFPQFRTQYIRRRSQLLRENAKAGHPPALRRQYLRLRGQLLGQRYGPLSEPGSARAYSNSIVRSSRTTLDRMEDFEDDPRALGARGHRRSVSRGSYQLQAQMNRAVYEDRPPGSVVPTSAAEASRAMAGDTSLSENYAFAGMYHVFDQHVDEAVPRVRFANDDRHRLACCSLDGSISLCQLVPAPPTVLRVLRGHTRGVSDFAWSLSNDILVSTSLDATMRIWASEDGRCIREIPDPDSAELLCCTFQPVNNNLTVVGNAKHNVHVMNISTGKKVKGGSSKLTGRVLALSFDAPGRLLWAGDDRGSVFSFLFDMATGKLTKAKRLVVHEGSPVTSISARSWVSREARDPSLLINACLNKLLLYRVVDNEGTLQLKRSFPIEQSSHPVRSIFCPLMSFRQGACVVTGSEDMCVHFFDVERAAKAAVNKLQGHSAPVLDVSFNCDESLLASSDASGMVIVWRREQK

Compound: Nc1ncnc2c1ncn2[C@@H]1O[C@H](COP(=O)(O)OP(=O)(O)OP(=O)(O)O)[C@@H](O)[C@H]1O [adenosine triphosphate]
Experiment: NP40-soluble protein abundance relative to vehicle (solubility fold change) (ratio); higher = more soluble protein in presence of ATP
How it was run: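 Jurkat crude lysate (Dounce-homogenised) was treated with eight concentrations from 0.1 to 10 mM for 10 min at room temperature, then 3 min at 37 °C. It was solubilised with 0.8% NP40 and benzonase (60 min, 4 °C) and ultracentrifuged, and the supernatant was TMT-labelled for LC-MS/MS. Intensities were vsn-normalised, and the value is the fold change against the NP40-processed vehicle per replicate, from three independent experiments.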

| Target | NP40-soluble protein abundance (concentration: 1mM) | NP40-soluble protein abundance (concentration: 2mM) | NP40-soluble protein abundance (concentration: 4mM) | NP40-soluble protein abundance (concentration: 6mM) | NP40-soluble protein abundance (concentration: 8mM) | NP40-soluble protein abundance (concentration: 10mM) |
| --- | --- | --- | --- | --- | --- | --- |
| WDR76 (UniProt Q9H967) | 1.2 ± 0.24 | 1.11 ± 0.16 | 1.19 ± 0.14 | 1.16 ± 0.14 | 1.25 ± 0.11 | 1.18 ± 0.13 |
| REXO4 (UniProt Q9GZR2) | 1.03 ± 0.032 | 1.04 ± 0.024 | 1.07 ± 0.019 | 1.09 ± 0.015 | 1.11 ± 0.035 | 1.06 ± 0.037 |
| CENPH (UniProt Q9H3R5) | 0.992 ± 0.12 | 0.968 ± 0.065 | 1.01 ± 0.069 | 1.03 ± 0.077 | 1.03 ± 0.048 | 0.937 ± 0.17 |
| KLC2 (UniProt Q9H0B6) | 0.984 ± 0.037 | 0.949 ± 0.02 | 0.958 ± 0.016 | 0.978 ± 0.039 | 0.948 ± 0.039 | 0.9276 ± 0.0072 |
| ZHX3 (UniProt Q9H4I2) | 1 ± 0.097 | 1.01 ± 0.062 | 1.05 ± 0.094 | 1.02 ± 0.039 | 0.978 ± 0.056 | 1.01 ± 0.051 |
| UniProt Q9H334 and related entries | 1.01 ± 0.018 | 1.03 ± 0.075 | 1.08 ± 0.11 | 1.02 ± 0.081 | 1.02 ± 0.12 | 1.03 ± 0.14 |
| MTIF3 (UniProt Q9H2K0) | 1.1 ± 0.15 | 1.06 ± 0.075 | 1.15 ± 0.074 | 1.13 ± 0.041 | 1.16 ± 0.063 | 1.09 ± 0.14 |
| UniProt Q9H7B2 | 1.11 ± 0.1 | 1.16 ± 0.028 | 1.14 ± 0.042 | 1.08 ± 0.12 | 1.03 ± 0.084 | 0.992 ± 0.038 |
| PTGES2 (UniProt Q9H7Z7) | 0.937 ± 0.09 | 0.946 ± 0.064 | 0.933 ± 0.064 | 0.892 ± 0.1 | 0.909 ± 0.034 | 0.921 ± 0.043 |
| UniProt Q9H2D6 and related entries | 1.03 ± 0.054 | 1.03 ± 0.07 | 1.027 ± 0.01 | 1.01 ± 0.052 | 1.02 ± 0.12 | 0.976 ± 0.096 |
| SPRTN (UniProt Q9H040) | 1.02 ± 0.24 | 1.04 ± 0.26 | 1.11 ± 0.094 | 1.11 ± 0.085 | 0.929 ± 0.021 | 1.02 ± 0.021 |
| WDR61 (UniProt Q9GZS3) | 1.04 ± 0.052 | 1.01 ± 0.04 | 1 ± 0.046 | 1.01 ± 0.039 | 1.04 ± 0.036 | 0.959 ± 0.026 |
| UniProt Q9C037 and related entries | 1.02 ± 0.012 | 1.02 ± 0.03 | 1 ± 0.018 | 1.01 ± 0.043 | 1.02 ± 0.018 | 1.02 ± 0.018 |
| QRSL1 (UniProt Q9H0R6) | 0.998 ± 0.034 | 1.03 ± 0.036 | 0.987 ± 0.017 | 1.03 ± 0.033 | 0.977 ± 0.042 | 0.991 ± 0.033 |
| EHMT1 (UniProt Q9H9B1) | 0.9 ± 0.064 | 1.06 ± 0.077 | 1 ± 0.031 | 1.09 ± 0.12 | 1.01 ± 0.031 | 0.999 ± 0.018 |
| UniProt Q9H6Q4 | 0.994 ± 0.044 | 0.947 ± 0.035 | 1.03 ± 0.04 | 0.935 ± 0.045 | 0.936 ± 0.033 | 0.967 ± 0.026 |
| EGLN1 (UniProt Q9GZT9) | 0.973 ± 0.093 | 1 ± 0.032 | 1.02 ± 0.041 | 1.01 ± 0.079 | 0.971 ± 0.038 | 0.996 ± 0.042 |
| PHAX (UniProt Q9H814) | 0.967 ± 0.023 | 0.98 ± 0.018 | 0.958 ± 0.014 | 1.01 ± 0.018 | 0.971 ± 0.026 | 0.979 ± 0.019 |
| TOLLIP (UniProt Q9H0E2) | 0.954 ± 0.018 | 0.968 ± 0.016 | 0.947 ± 0.015 | 0.979 ± 0.014 | 0.924 ± 0.055 | 0.935 ± 0.036 |
| RACGAP1 (UniProt Q9H0H5) | 1.1 ± 0.033 | 1.14 ± 0.047 | 1.14 ± 0.035 | 1.2 ± 0.041 | 1.17 ± 0.035 | 1.19 ± 0.036 |
| MRPL46 (UniProt Q9H2W6) | 0.987 ± 0.1 | 0.927 ± 0.099 | 0.899 ± 0.067 | 0.913 ± 0.16 | 0.935 ± 0.11 | 0.86 ± 0.091 |
| PLEKHA1 (UniProt Q9HB21) | 0.99 ± 0.043 | 1 ± 0.024 | 1 ± 0.042 | 1.01 ± 0.09 | 0.963 ± 0.024 | 0.994 ± 0.019 |
| APOBEC3G (UniProt Q9HC16) | 1.06 ± 0.12 | 1.05 ± 0.094 | 0.941 ± 0.15 | 1.05 ± 0.12 | 1.04 ± 0.16 | 1.06 ± 0.098 |
| ETNK1 (UniProt Q9HBU6) | 1.01 ± 0.12 | 1.02 ± 0.11 | 0.982 ± 0.091 | 0.94 ± 0.088 | 1 ± 0.056 | 0.954 ± 0.03 |
| UniProt Q9H0R4 and related entries | 0.931 ± 0.01 | 0.932 ± 0.022 | 0.912 ± 0.072 | 0.932 ± 0.016 | 0.921 ± 0.028 | 0.882 ± 0.02 |
| UniProt Q9H9E3 and related entries | 1.017 ± 0.0098 | 0.982 ± 0.032 | 0.9787 ± 0.0091 | 0.979 ± 0.028 | 0.983 ± 0.012 | 0.972 ± 0.026 |
| MVB12B (UniProt Q9H7P6) | 0.9484 ± 0.0076 | 0.962 ± 0.046 | 0.935 ± 0.031 | 0.946 ± 0.031 | 0.931 ± 0.016 | 0.942 ± 0.031 |
| CBX8 (UniProt Q9HC52) | 1.09 ± 0.051 | 1.14 ± 0.048 | 1.26 ± 0.12 | 1.34 ± 0.11 | 1.43 ± 0.1 | 1.65 ± 0.13 |
| WDR13 (UniProt Q9H1Z4) | 1.06 ± 0.13 | 0.918 ± 0.16 | 0.958 ± 0.033 | 0.896 ± 0.11 | 0.992 ± 0.11 | 1.01 ± 0.041 |
| UniProt Q9H1P3 and related entries | 0.977 ± 0.036 | 0.99 ± 0.052 | 0.968 ± 0.038 | 0.932 ± 0.11 | 0.975 ± 0.037 | 0.969 ± 0.044 |

5 entries from above, tab-delimited:
Target	NP40-soluble protein abundance (concentration: 1mM)	NP40-soluble protein abundance (concentration: 2mM)	NP40-soluble protein abundance (concentration: 4mM)	NP40-soluble protein abundance (concentration: 6mM)	NP40-soluble protein abundance (concentration: 8mM)	NP40-soluble protein abundance (concentration: 10mM)
PLEKHA1 (UniProt Q9HB21)	0.99 ± 0.043	1 ± 0.024	1 ± 0.042	1.01 ± 0.09	0.963 ± 0.024	0.994 ± 0.019
APOBEC3G (UniProt Q9HC16)	1.06 ± 0.12	1.05 ± 0.094	0.941 ± 0.15	1.05 ± 0.12	1.04 ± 0.16	1.06 ± 0.098
ETNK1 (UniProt Q9HBU6)	1.01 ± 0.12	1.02 ± 0.11	0.982 ± 0.091	0.94 ± 0.088	1 ± 0.056	0.954 ± 0.03
UniProt Q9H0R4 and related entries	0.931 ± 0.01	0.932 ± 0.022	0.912 ± 0.072	0.932 ± 0.016	0.921 ± 0.028	0.882 ± 0.02
UniProt Q9H9E3 and related entries	1.017 ± 0.0098	0.982 ± 0.032	0.9787 ± 0.0091	0.979 ± 0.028	0.983 ± 0.012	0.972 ± 0.026
